PMC11199487, “Hub stability in the calcium calmodulin-dependent protein kinase II” (Communications Biology, 2024)
No constants are given. Whether binding was seen depends on the method and setting.

The chains behind the UniProt entries cited, without tags or fusion partners. Residues count along the entry.
UniProt P08413, residues 1-314: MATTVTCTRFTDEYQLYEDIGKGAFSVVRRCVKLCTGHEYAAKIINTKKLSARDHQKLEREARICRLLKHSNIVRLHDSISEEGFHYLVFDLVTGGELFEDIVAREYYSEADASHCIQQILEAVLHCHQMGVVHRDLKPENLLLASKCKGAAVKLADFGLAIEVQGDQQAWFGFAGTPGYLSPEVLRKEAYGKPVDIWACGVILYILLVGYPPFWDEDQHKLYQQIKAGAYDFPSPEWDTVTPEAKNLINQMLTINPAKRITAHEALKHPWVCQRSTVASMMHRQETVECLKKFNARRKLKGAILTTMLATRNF

Target: monomeric 6His-V15-rCaMKIIβ (Venus-tagged kinase domain, association domain removed from residue 315) (rat) (UniProt P08413)
Experiment: single-molecule TIRFM (spot intensity and photobleaching steps); Venus-tagged CaMKII stock diluted >1000x in AB- buffer, immobilised on a GFP antibody-coated coverslip, unbound protein washed out, room temperature; both purified

With “monomeric 6His-V15-rCaMKIIβ (Venus-tagged kinase domain, association domain removed from residue 315) (from UniProt P08413 1-314) (domain or fragment)” as the substance, how does the binding read?
The binding was “no binding”.
